Tested on: tyrosine hydroxylase positive (TH+) cells in mesencephalic cultures
Test: TH+ dopaminergic cell counts and morphology in dox-induced mesencephalic cultures
Format: cell-based, mouse
Settings: deprenyl co-treatment, FIG. 2B

`C#CCN(C)[C@H](C)Cc1ccccc1` [deprenyl] was tested, and the “morphological dopaminergic neurite alterations” value was “attenuated”.
